# Data as given in PubChem BioAssay AID743454 (Peter MacCallum Cancer Centre, 2014).
# Purpose: 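Genes whose loss kills vorinostat-resistant colon cancer cells under vorinostat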 (primary screen)
# Cell system: human HCT116-VR colon cancer cells, selected for vorinostat resistance
# Reagent: siRNA pool against human genes, 40 nM siRNA pool
# Time to read-out: vorinostat for 24 h, read-out about 72 h after transfection
# Conditions: vorinostat at 2.5 µM final
# Measurement: 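Cell viability by CellTiter-Fluor and caspase 3/7 activity by luminescence, each scaled to mock wells per plate, duplicates averaged, then robust z-scored over all plates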
# Reading the numbers: viability robust z-score: higher = more viable cells than screen typical; caspase robust z-score: higher = more caspase 3/7 activity than screen typical
# Hit rule: 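Hits are knock-downs in viability class RV1/RV2 or caspase class CA1/CA2, excluding ones that killed cells in the no-drug cell-count arm; hits then retested with single siRNAs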
# The whole screen tested about 18,000 reagents; this is a part drawn at random. Over the whole deposit, 450 (2.5%) got an active call. 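Single biological run; no consistent viability z cut-off exists, so the class columns, not z-scores, define the calls.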
target,PubChem SID,viability hit class,caspase hit class,viability robust z-score,caspase robust z-score,activity call
PIP4K2C,SID56478804,no change,no change,1.2,-0.53,inactive
TRDMT1,SID152148618,no change,no change,-0.08,-0.98,inactive
SLC4A5,SID152148540,no change,no change,0.15,0.37,inactive
LZTFL1,SID152154681,no change,no change,-0.21,0.56,inactive
VEGFB,SID135623005,no change,no change,-1.68,0.94,inactive
RAD21,SID134311994,no change,no change,-0.52,1.8,inactive
TLNRD1,SID134318340,no change,no change,0.33,0.62,inactive
CLIC5,SID152152119,no change,no change,-0.16,3.23,inactive
STAT5B,SID135621957,no change,no change,-0.2,-0.2,inactive
ATP2C2,SID152152761,no change,no change,0.42,-0.36,inactive
NDUFB10,SID152149601,no change,no change,-0.3,-0.41,inactive
LTN1,SID134312093,no change,no change,-0.04,0.16,inactive
UTP23,SID134318948,no change,no change,0.17,-0.36,inactive
CYB5R1,SID134313467,no change,no change,1.07,0.18,inactive
IFNA16,SID152152611,no change,CA2 (caspase activation),-0.94,6.53,active
CCDC12,SID152156595,no change,no change,-2.01,3.21,inactive
TFPI,SID135623872,no change,no change,0.34,-1.18,inactive
RHOBTB2,SID134314017,no change,no change,2.43,-0.58,inactive
ERMN,SID152155389,no change,no change,-0.33,1.29,inactive
PON3,SID152156715,no change,no change,0.32,0.5,inactive
UTRN,SID152154412,no change,no change,0.77,-0.64,inactive
ABI3BP,SID152155447,no change,no change,-0.19,-0.63,inactive
KY,SID152154428,no change,no change,-0.75,0.62,inactive
NFU1,SID135624008,no change,no change,0.84,0.16,inactive
CREBZF,SID135622640,no change,no change,-0.22,1.17,inactive
ZNF235,SID134316242,no change,no change,-0.77,-0.52,inactive

Targets listed so far whose gene name begins with U or u (2):
target,PubChem SID,viability hit class,caspase hit class,viability robust z-score,caspase robust z-score,activity call
UTP23,SID134318948,no change,no change,0.17,-0.36,inactive
UTRN,SID152154412,no change,no change,0.77,-0.64,inactive

The listing continues:
target,PubChem SID,viability hit class,caspase hit class,viability robust z-score,caspase robust z-score,activity call
MIB1,SID152150394,no change,no change,-0.44,0.36,inactive
NPTX2,SID134316909,no change,no change,0.89,-0.42,inactive
CD101,SID135623855,no change,no change,1.74,3.75,inactive
KRT15,SID135622182,no change,no change,1.38,-0.8,inactive
DDA1,SID152153669,no change,no change,0.39,0.02,inactive
TIGD1,SID134321372,no change,no change,-0.52,-0.7,inactive
ZDHHC14,SID134320683,no change,no change,-0.94,-0.19,inactive
MPP4,SID134319130,no change,no change,-0.82,0.06,inactive
ZNF91,SID135623832,no change,no change,0.06,0.58,inactive
GANC,SID135624667,no change,no change,-0.01,3.69,inactive
SUB1,SID152147644,no change,no change,0.36,-0.37,inactive
GPRASP2,SID152155733,no change,no change,-0.33,0.36,inactive
METTL27,SID134324910,no change,no change,0.14,-1.28,inactive
SLC25A28,SID152152427,no change,no change,0.28,-0.1,inactive
GJC2,SID135623976,no change,no change,0.7,0.01,inactive
EIF1AY,SID134316221,no change,no change,1.82,-1.19,inactive
CORO2B,SID135622375,no change,no change,-0.36,0.36,inactive
TNK1,SID152152407,no change,no change,-0.69,2,inactive
MRAP,SID152149449,no change,no change,-0.14,0.4,inactive
GPR119,SID135621014,no change,no change,-1.32,0.03,inactive
COLEC10,SID134316505,no change,no change,0.35,-0.6,inactive
ACTR1B,SID134316372,no change,no change,1.42,0.82,inactive
SPMIP9,SID134320191,no change,no change,-0.27,-0.07,inactive
PXMP4,SID152151945,no change,no change,1.55,0.64,inactive
CNOT1,SID134319414,no change,CA2 (caspase activation),-1.74,13.5,active
PAPLN,SID135624900,no change,no change,0.38,-1.02,inactive
GBA2,SID134314129,no change,no change,0.86,-0.54,inactive
DUOX1,SID134313052,no change,no change,0.8,0.01,inactive
TUBD1,SID135621263,no change,no change,-1.23,0.28,inactive
DPP10,SID135621684,no change,no change,0.54,-1.04,inactive
ZNF384,SID152150351,no change,no change,0.15,-0.27,inactive
